Data: PubChem BioAssay AID2685 (National Center for Advancing Translational Sciences (NCATS), 2010)
Some of the results follow. These are further read-outs of the screen, such as a control signal, another cell line or another target. No call is given for them. The list favours compounds with an active or inconclusive main result. The note in brackets gives the kind of curve behind each potency; many fits are weak.

Test: qHTS Assay for Lipid Storage Modulators in Drosophila S3 Cells;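 for cell number change: cells counted by Cell Tracker Red CMTPX staining in the red channel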
Conditions: BODIPY lipid droplet fluorescence, 18-24 h; for cell number change: measured here: cell count max response, cells fed with added oleic acid
Outline: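 Laser-scanning cytometry quantifies lipid droplet accumulation (500–530 nm total intensity; droplet/cell object ratio) in oleic acid-fed (400 uM added) Drosophila S3 cells treated with a concentration series. 20 uM Triacsin C defined 100% inhibition.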

[1] = measured here: lipid fluorescence (Fed channel) AC50, cells fed with added oleic acid
[2] = measured here: cell number channel AC50, cells fed with added oleic acid

Row | Compound | cell number change [%] | AC50 [1] | AC50 [2]
1 | CN(Cc1ccccc1)C(=O)COC(=O)CCN1C(=O)C2CC=CCC2C1=O (configuration not stated) | -3.5 | 29.1 µM [rising, single point] | 
2 | COc1ccc(Cc2nnc(N/N=C/c3ccccc3O)[nH]c2=O)cc1OC | -14.1 | 3.66 µM [falling, partial curve, poor fit] | 
3 | CCOC(=O)c1sc(NC(=O)CSc2nnc(C(C)C)n2C)nc1C | -31 | 29.1 µM [falling, single point] | 29.1 µM [falling, single point]
4 | CC1(C)Cc2ccccc2-c2nnc(SCC(=O)N3CCc4ccccc43)n21 | -53.5 |  | 3.66 µM [falling, full curve]
5 | CCN=C1SC(CC(=O)NCCc2ccc(OC)c(OC)c2)C(=O)N1CC (configuration not stated) | -8.77 |  | 
6 | Cc1cccc(N2CC(C(=O)NCC3COc4ccccc4O3)CC2=O)c1C (configuration not stated) | 16 | 0.326 µM [rising, partial curve, poor fit] | 
7 | O=C(NCc1ccncc1)C1CCN(S(=O)(=O)c2ccccc2)CC1 | 32 |  | 0.517 µM [rising, full curve, poor fit]
8 | Cc1ccc(C)c(N(CC(=O)NC2CCCC2)C(=O)c2csnn2)c1 | 0.952 |  | 
9 | CC(C)(C)c1cc(NC(=O)COc2ccc(Br)cc2)n(-c2ccccc2)n1 |  |  | 2.31 µM [rising, partial curve]
10 | Cc1ccc(C2CC(c3cccc(Br)c3)n3nc(N)nc3N2)cc1 (configuration not stated) |  |  | 4.61 µM [rising, single point]
11 | O=C(Nc1ccc(F)cc1)c1ccccc1F | 1.39 | 1.16 µM [falling, full curve] | 0.731 µM [falling, full curve]
12 | COCc1nnc(NC(=O)c2ccc(S(=O)(=O)N(C)Cc3ccccc3)cc2)o1 | 6.52 | 29.1 µM [falling, partial curve, poor fit] | 
13 | Cc1cccc(C)c1OCC(=O)NCc1nnc(SCC(=O)NC2CCCCC2C)n1C (configuration not stated) | 12.1 |  | 6.51 µM [rising, single point]
14 | Oc1cccc(C(Nc2nccs2)c2ccc3cccnc3c2O)c1 (configuration not stated) | 81.8 |  | 23.1 µM [rising, single point]
15 | N#C/C(=C(/O)COc1ccccc1)c1nnc2n1CCCCC2 | -37.6 |  | 
16 | COc1ccc(-c2c(S(=O)(=O)c3ccccc3)cnn2-c2ccccc2)cc1 | -11.9 |  | 
17 | Cc1nn(-c2ccccc2)c(Cl)c1C1C(C#N)=C(N)Oc2n[nH]c(C)c21 (configuration not stated) | 0.541 | 0.291 µM [rising, partial curve, poor fit] | 
18 | O=C1Nc2ccccc2CCc2ccccc21 | 31.3 | 29.1 µM [rising, single point] | 14.6 µM [rising, single point]
19 | Cc1nn(CC(N)=O)c(=O)c2ccccc12 | -1.83 | 0.00461 µM [falling, full curve, poor fit] | 
20 | Fc1cccc(CNc2ncnc3ccc(-c4cccnc4)cc23)c1 | 31.2 |  | 18.4 µM [rising, single point]

In the list so far, these contain an aryl thioether with sulfur outside any ring.
Row | Compound | cell number change [%] | AC50 [1] | AC50 [2]
3 | CCOC(=O)c1sc(NC(=O)CSc2nnc(C(C)C)n2C)nc1C | -31 | 29.1 µM [falling, single point] | 29.1 µM [falling, single point]
4 | CC1(C)Cc2ccccc2-c2nnc(SCC(=O)N3CCc4ccccc43)n21 | -53.5 |  | 3.66 µM [falling, full curve]
13 | Cc1cccc(C)c1OCC(=O)NCc1nnc(SCC(=O)NC2CCCCC2C)n1C (configuration not stated) | 12.1 |  | 6.51 µM [rising, single point]

(further entries)

Row | Compound | cell number change [%] | AC50 [1] | AC50 [2]
21 | Cc1noc(C)c1C(=O)NCc1ccccc1 | -75.7 | 0.731 µM [falling, full curve] | 23.1 µM [falling, partial curve, poor fit]
22 | COCCn1c(SCC(=O)Nc2nnc(C)s2)nnc1-c1cc2ccccc2cc1O | 0.878 | 0.082 µM [falling, full curve, poor fit] | 
23 | CC1=C(C(=O)Nc2ccc(C)cc2C)C(c2ccc(C)o2)NC(=S)N1 (configuration not stated) | 11.4 | 0.13 µM [falling, full curve, poor fit] | 
24 | CC1CCCN(CCCNC(=O)c2ccc3c(c2)N(Cc2ccc(F)cc2)C(=O)c2ccccc2S3=O)C1 (configuration not stated) | 35.1 |  | 29.1 µM [rising, single point]
25 | COc1ccc(-c2nc(CS(=O)CC(=O)NCCC3=CCCCC3)c(C)o2)cc1 (configuration not stated) | 4.66 | 0.366 µM [falling, partial curve] | 
26 | O=C(CN1CCN(Cc2cccc3ccccc23)CC1)NCCc1ccccc1 | -14.5 |  | 0.259 µM [falling, partial curve, poor fit]
27 | Cc1ccccc1OCc1nc2ccccc2n1C | -27.7 | 29.1 µM [falling, single point] | 
28 | CN(Cc1ccc(F)cc1)C(=O)c1cccc(OC2CCN(C3CCCC3)CC2)c1 | 1.57 | 2.91 µM [rising, full curve] | 
29 | Nc1csnc1C(=O)O | -9.12 | 0.231 µM [falling, full curve, poor fit] | 
30 | O=S1(=O)CCOC[C@H](CC2CCCCC2)N1Cc1ccccc1 | 0.299 | 1.16 µM [falling, single point] | 
31 | COc1cccc(C(=O)NCC(=O)N/N=C/c2ccc3c(c2)OCO3)c1 | 58.3 | 29.1 µM [falling, single point] | 14.6 µM [rising, partial curve, poor fit]
32 | Cn1nnc2cc(C(=O)Nc3ccccc3F)ccc21 | -6.58 |  | 
33 | CC(C(=O)N1CCc2ccccc21)N1CCN(c2ccccn2)CC1 (configuration not stated) |  | 6.51 µM [falling, single point] | 
34 | Cc1cc(C)c2nc(NC(=O)c3ccc(OCC4CCCO4)cc3)sc2c1 (configuration not stated) | -27.9 | 29.1 µM [rising, single point] | 
35 | Cc1cccc(N(C(=O)CNC(=O)c2ccco2)C(C(=O)NC2CCCC2)c2cccnc2)c1 (configuration not stated) | 4.53 |  | 
36 | CCC(CC)c1nnc(NC(=O)c2ccco2)s1 | 16 | 29.1 µM [falling, single point] | 
37 | O=C1NC(=Nc2ccccc2)c2ccc([N+](=O)[O-])cc21 | -45.3 |  | 29.1 µM [falling, single point]
38 | COc1ccc(C(=O)NC2CC(C)(C)Cc3c2cnn3-c2ccccc2C)c(OC)c1OC (configuration not stated) | 5.78 | 6.51 µM [rising, single point] | 
39 | Cc1cc(C)c(C)c(OCCNCc2ccccc2)c1 | -31.5 | 3.66 µM [falling, full curve] | 29.1 µM [falling, single point]
40 | CCOC(=O)c1c(NC(=O)CN(CC)CC)sc2c1CCC2 | -34 |  | 13 µM [falling, partial curve, poor fit]
